# Reference: PubChem BioAssay AID2685 (National Center for Advancing Translational Sciences (NCATS), 2010)
# The other results are listed elsewhere or left out. Further columns of the screen follow, without active or inactive calls. Compounds called inactive in the main read-out are mostly missing here. Potencies come from curve fits of mixed quality, noted in brackets.
# Experiment: qHTS Assay for Lipid Storage Modulators in Drosophila S3 Cells;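 as to cell number change: cells counted by Cell Tracker Red CMTPX staining in the red channel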
# Conditions: BODIPY lipid droplet fluorescence, 18-24 h; for cell number change: measured here: cell count max response, cells fed with added oleic acid
# Outline: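 Laser-scanning cytometry quantifies lipid droplet accumulation (500–530 nm total intensity; droplet/cell object ratio) in oleic acid-fed (400 uM added) Drosophila S3 cells treated with a concentration series. 20 uM Triacsin C defined 100% inhibition.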
# [1] = measured here: lipid fluorescence (Fed channel) AC50, cells fed with added oleic acid
# [2] = measured here: cell number channel AC50, cells fed with added oleic acid
SMILES,cell number change [%],AC50 [1],AC50 [2]
Cc1c(C(=O)NCCN2CCOCC2)oc2ccc(S(=O)(=O)N3CCCCCC3)cc12,-10.5,"0.184 µM [falling, full curve, poor fit]",–
CC1(C)Cc2nc(Cl)c(C(N)=O)cc2CO1,-13.1,"29.1 µM [falling, single point]",–
COCCN(C(=O)c1ccco1)c1nc(-c2ccccc2)cs1,-17.2,"0.58 µM [falling, single point]",–
COc1cccc(C(=O)CSc2nc3cccnc3n2C)c1,-43,"29.1 µM [falling, single point]","29.1 µM [falling, single point]"
Oc1ccc(Br)cc1/C=N/NC(=S)NCCc1ccccc1,-12.6,–,–
Cc1ccc(C)c(CSc2nnc(CCN)o2)c1,–,–,"2.91 µM [falling, partial curve]"
Cc1ccc(S(=O)(=O)NCC(=O)OCC(=O)N2CCN(C(=O)c3ccco3)CC2)cc1C,-15.6,–,–
Cc1ccc(C2=NS(=O)(=O)N(C)C(C(=O)NCc3ccc(F)cc3)=C2)cc1,-0.288,–,–
COC(=O)c1ccc(NC(=O)Nc2ccc(OC)cc2)cc1,-39.8,"29.1 µM [falling, single point]","29.1 µM [falling, single point]"
O=C(/C=C/c1cn(-c2ccccc2)nc1-c1ccc2c(c1)OCCO2)NCCO,-43.4,"32.6 µM [falling, partial curve, poor fit]","32.6 µM [falling, single point]"
CCc1cccc(NS(=O)(=O)c2c(C)nc3sc(CC)nn3c2=O)c1,-16.5,–,–
COC(=O)C1=NN(N=O)C2(CC(=O)N(c3cc(C)cc(C)c3)C2=O)C1 (configuration not stated),-110,–,"18.4 µM [falling, single point]"
COc1ccc([N+](=O)[O-])cc1N(CC(=O)NCc1ccco1)S(C)(=O)=O,-2.55,"0.651 µM [rising, partial curve, poor fit]",–
Cc1ccc(-n2c(SCC(=O)N3CCOCC3)nnc2-c2cccnc2)cc1C,0.0585,"29.1 µM [rising, single point]",–
CC(=O)c1ccc(NC(=O)c2sc3nc(N4CCOCC4)c4c(c3c2N)CCCC4)cc1,-18.3,"11.6 µM [falling, single point]",–
Cc1ccccc1CN(C)CCc1ccccn1,-37.3,–,"32.6 µM [falling, single point]"
COCc1nnc(NC(=O)c2cccc(NC(=O)C(C)C)c2)s1,3.91,"0.103 µM [rising, full curve, poor fit]",–

# As entered above.
# COc1cccc(C(=O)CSc2nc3cccnc3n2C)c1 | cell number change [%]: -43
# CCc1cccc(NS(=O)(=O)c2c(C)nc3sc(CC)nn3c2=O)c1 | cell number change [%]: -16.5
